System: P. berghei
Assay: Standard 4 day Peters assay, P. berghei in mice, drug intraperitoneally
Type: in vivo
Details: P. berghei infections in mice, twice a day days 0-3, FIG. 11
Protocol: (§1) FIG. 11. The effect of the racemic form of propranolol on growth of P. berghei in vivo. In vivo mouse experiments were done with P. berghei using a standard 4 day Peters assay (W. Peters, B. L. Robinson, Ann Trop Med Parasitol 78, 561 (1984)). P. berghei and the racemic form of propranolol were administered intraperitoneally; five mice were used per data point. In IC50 studies, 5 data points were taken. Mice were given 5×10^7 parasites on day 0, and indicated concentrations of drug twice a day on days 0-3. Tail bleeds were carried out on day 4 to ascertain parasitemia, after which the animals were sacrificed.
as §1, with “FIG. 12.” for “FIG. 11.”, “of ICI 118,551” for “of the racemic form of propranolol”, “and ICI 181,551” for “and the racemic form of propranolol”
In vivo mouse experiments were done with P. berghei using a standard 4 day Peters assay (W. Peters, B. L. Robinson, Ann Trop Med Parasitol 78, 561 (1984)). […]

## CC(C)NCC(O)COc1cccc2ccccc12 (racemic) [racemic propranolol]
  IC50: 7.5 mg/kg/day
